Article PMC12325954

Columns and labels:
[1] = target: A. franciscana ATP synthase b-subunit (A. franciscana (endogenous in A. franciscana mitochondria)); test: cryo-EM structure; single-particle cryo-EM of the ATP synthase monomer purified from A. franciscana mitochondria in DDM at pH 8.0; rotational states 1, 2 and 3a; local refinement of F1, FO and peripheral stalk; both purified
[2] = target: A. franciscana ATP synthase c-subunit (c8-ring) (A. franciscana (endogenous in A. franciscana mitochondria)); test: as above
[3] = target: A. franciscana ATP synthase b-subunit (A. franciscana (endogenous in A. franciscana mitochondria)); test: cryo-EM structure; single-particle cryo-EM of the ATP synthase monomer purified from A. franciscana mitochondria in DDM at pH 7.0; rotational states 1, 2 and 3a; local refinement of F1 and FO; both purified
[4] = target: A. franciscana ATP synthase c-subunit (c8-ring) (A. franciscana (endogenous in A. franciscana mitochondria)); test: as above

binding [1]: binds
binding [2]: binds
binding [3]: binds
binding [4]: binds
B1: A. franciscana ATP synthase a-subunit (subunit 6 or ATP6) (protein, UniProt Q37708 1-219)
chain: MMASLFSVFDPTSSFLSNWLSMLIPLLFMVMSFWLIPSRPQFLAKSVLMGLNREMSLLMGPASFGANILVIALFLFILFNNFIGLFPYIFTATSHLAVTLSLAVPLWISFILYTWIKETTNALAHLVPLGTPAPLMPFMVLMEIISNMIRPITLSVRLAANMIAGHLLLTLLGAQGTLENLYVTSIVVFSQIILLMLEFSVAIIQSYVFMTLMTLYASE

These are yes or no findings as the source states them, for the method shown. Binding calls can cover weak binding; strength is not graded here.
